Record: PubChem BioAssay AID1259254 (NCATS, 2017)

Aim: 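Finding genes that stop cells copying their DNA twice in one cycle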 (primary screen)
Cell system: human HCT116 colorectal cancer cells
Reagent: single siRNA against human genes
Time to read-out: 3 days
Measurement: 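Nuclei stained with Hoechst and imaged; cell-cycle phase assigned by DNA content; G2 share scaled per plate, non-targeting siRNA 0%, GMNN siRNA 100%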
Reading the numbers: G2 robust z-score and G2 cells, % of GMNN control: higher = more G2 cells, more excess DNA replication; raw share of cells in G2: higher = larger share of cells with G2 DNA content
Hit rule: 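Active siRNAs have a G2 robust z of 5 or more median absolute deviations over the median, which in these data means about 38% or higher of GMNN control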
In all, the deposit lists about 59,000 reagents; below is an unselected part. About 1,550 of them (2.6%) were called active. 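G2 share is only a proxy for re-replication; each gene was hit by three separate siRNAs, and active genes were retested.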 Raw values vary from plate to plate and are shown uncorrected. The numbers tell different reagents against one gene apart. Not given: the amount of reagent.

Gene	reagent	G2 robust z-score	G2 cells, % of GMNN control	raw share of cells in G2 (%)	activity call
RNF13	1	0.0535	3.34	6.3	inactive
RNF13	2	-0.712	-2.04	3.29	inactive
RNF13	3	-1.04	-4.35	1.55	inactive
MAP3K6	1	-0.00463	2.93	6.5	inactive
MAP3K6	2	-1.06	-4.47	3.57	inactive
MAP3K6	3	-1.08	-4.63	2.2	inactive
H3C7	1	-0.863	-3.11	3.75	inactive
H3C7	2	0.127	3.86	5.43	inactive
H3C7	3	2.32	19.3	10.2	inactive
TRIM29	1	0.368	5.56	5.81	inactive
TRIM29	2	-0.739	-2.23	5.15	inactive
TRIM29	3	2.32	19.3	10.6	inactive
GPR101	1	0.744	8.2	8.78	inactive
GPR101	2	-0.785	-2.56	3.62	inactive
GPR101	3	-0.831	-2.88	2.39	inactive
QRSL1	1	-0.473	-0.363	6.27	inactive
QRSL1	2	-0.616	-1.36	3.95	inactive
QRSL1	3	0.277	4.92	6.38	inactive
RHBDF1	1	-1.14	-5.07	2.37	inactive
RHBDF1	2	1.04	10.3	9.21	inactive
RHBDF1	3	-0.905	-3.4	1.8	inactive
PHF23	1	-0.741	-2.24	3.6	inactive
PHF23	2	-0.732	-2.19	3.63	inactive
PHF23	3	2.05	17.4	7.29	inactive
STEAP1B	1	0.485	6.38	5.23	inactive
STEAP1B	2	0.999	9.99	7.2	inactive
STEAP1B	3	0.167	4.14	4.55	inactive
SLCO2B1	1	2.66	21.7	15.1	inactive
SLCO2B1	2	2.61	21.3	11.3	inactive
SLCO2B1	3	0.154	4.05	5.25	inactive
MMP15	1	-0.571	-1.05	5.19	inactive
MMP15	2	-1.58	-8.18	2.01	inactive
MMP15	3	-0.0666	2.5	4.84	inactive
MRGPRG-AS1	1	0.154	4.05	5.12	inactive
MRGPRG-AS1	2	-0.497	-0.527	2.84	inactive
MRGPRG-AS1	3	0.943	9.6	6.19	inactive
RANBP10	1	0.151	4.03	5.93	inactive
RANBP10	2	-0.931	-3.58	2.75	inactive
RANBP10	3	0.285	4.97	4.6	inactive
YWHAEP5	1	0.127	3.86	5.11	inactive
YWHAEP5	2	-1.04	-4.35	1.77	inactive
YWHAEP5	3	0.544	6.8	5.43	inactive
KRT81	1	0.211	4.45	5.83	inactive
KRT81	2	-1.2	-5.5	3.05	inactive
KRT81	3	-0.954	-3.75	4.26	inactive
GP1BA	1	3.02	24.2	14.5	inactive
GP1BA	2	2.63	21.5	13	inactive
GP1BA	3	0.0345	3.21	4.8	inactive
AKAP9	1	0.031	3.19	7.08	inactive
AKAP9	2	-0.821	-2.81	5.37	inactive
AKAP9	3	-0.426	-0.0306	3.83	inactive
CHID1	1	0.0631	3.41	7.06	inactive
CHID1	2	-0.88	-3.22	3.21	inactive
CHID1	3	2.09	17.6	10.6	inactive
SLC7A8	1	1	10	7.29	inactive
SLC7A8	2	-1.24	-5.73	4.07	inactive
SLC7A8	3	2.45	20.2	10.9	inactive
DORIP1	1	1.08	10.6	8.34	inactive
DORIP1	2	3.41	27	11.4	inactive
DORIP1	3	-0.975	-3.89	0.681	inactive
AKNA	1	1.47	13.3	9.96	inactive
AKNA	2	0.47	6.27	7.05	inactive
AKNA	3	-0.124	2.09	2.95	inactive
CAPN15	1	-0.776	-2.49	4.69	inactive
CAPN15	2	-1.01	-4.11	3.45	inactive
CAPN15	3	-0.763	-2.4	3.01	inactive
ZBTB7B	1	0.183	4.25	7.88	inactive
ZBTB7B	2	-0.704	-1.99	3.51	inactive
ZBTB7B	3	-0.325	0.68	4.06	inactive

Part of the list above, set out differently.
Gene | reagent | G2 robust z-score | G2 cells, % of GMNN control | raw share of cells in G2 (%) | activity call
MRGPRG-AS1 | 3 | 0.943 | 9.6 | 6.19 | inactive
RANBP10 | 1 | 0.151 | 4.03 | 5.93 | inactive
RANBP10 | 2 | -0.931 | -3.58 | 2.75 | inactive
